# Library screening results

The values are deposited in ChEMBL (CHEMBL3988442, “University of Dundee, Small-Polar-MMV Screening Library” (2021)).

Values are the deposited “Percent Effect”, in %. The record does not define 0% and 100%; most values in the screen are far below 50% and negative numbers occur (in some assays of this library far below -100). Compounds were drawn at random from those tested, without regard to their results. A dash means the value is not listed here; it may have been measured.

Mtb growth Cornell: 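Whole-cell assay for inhibitors of Mycobacterium tuberculosis growth, labelled Cornell in the record; the read-out is not stated. The concentration is filed as 10 mM, unlikely as a test dose, so the dose is not known. The record gives no direction; compounds strong in two other growth screens of this library score well above the rest, so higher reads as stronger inhibition. Size under these conditions: about 53,000 compounds, about 900 of them at 50% or above in at least one test.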
Mtb heat-shock: 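Assay on Mycobacterium tuberculosis, filed only as a heat shock assay from Cornell; the read-out is not stated. The concentration is filed as 10 mM, unlikely as a test dose, so the dose is not known. The record gives no direction; compounds that gave an IC50 in retests scored well above the rest, so higher reads as stronger inhibition. Size under these conditions: about 69,000 compounds, about 930 of them at 50% or above in at least one test.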

| # | structure | Mtb growth Cornell | Mtb heat-shock |
|---|---|---|---|
| 1 | `CC(OCC(F)(F)F)C(=O)N1CCN(S(C)(=O)=O)CC1` (stereo not drawn) | -40.89 | 11.46 |
| 2 | `Cl.Cn1ncc2c1CCCC2NCc1cc(Br)cs1` (stereo not drawn) | - | 0.1757 |
| 3 | `O=C(c1cccs1)N1CC(Oc2ccccc2Cl)C1` | - | 15.48 |
| 4 | `Cc1nc2ccccc2nc1CN1CCOC(Cn2cccn2)C1` (stereo not drawn) | -77.19 | -15.82 |
| 5 | `CCCc1noc(CN2CCN(CCC(C)C)CC2)n1` | - | -1.859 |
| 6 | `COCCNc1nc(NCCc2ccccc2)nc2nccnc12` | -16.02 | -3.664 |
| 7 | `Cc1ccc(CN2CCC3(CC2)CN(c2cnn(C)c2)C(=O)CO3)o1.O=C(O)C(F)(F)F` | 31.97 | -7.35 |
| 8 | `Cc1nnc(NCC(c2cccs2)N2CCCC2)c(C#N)c1C` (stereo not drawn) | -26.84 | 29.56 |
| 9 | `Cc1nn(C)c(C)c1C1CCCN1C(=O)c1cnccn1` (stereo not drawn) | -21.65 | 3.893 |
| 10 | `Cc1nn(C)cc1-c1ccnc(N2CCN(c3ccccc3)C(=O)C2)n1` | 4.108 | -37.77 |
| 11 | `c1cnn(CC2CCCN2Cc2nc(-c3ccoc3)no2)c1` (stereo not drawn) | - | 4.872 |
| 12 | `O=C(O)C(F)(F)F.[H][C@@]12COC[C@]1(CNC(=O)c1ccccc1)CN(Cc1scnc1C)C2` | 17.64 | -24.18 |
| 13 | `CS(=O)(=O)NCc1cncc2c1CCN(C(=O)N1CCCC1)C2.Cl` | -0.7345 | -22.37 |
| 14 | `Cn1cc(N2CCN(c3ccc(C#N)cc3F)CC2=O)cn1` | - | -120.5 |
| 15 | `COc1nc(C)cc(C)c1CNC(=O)N(C)Cc1cnn(C)c1` | 12.3 | 1.271 |
| 16 | `CC(CC(=O)NCCS(N)(=O)=O)C1CCCCC1` (stereo not drawn) | 2.816 | 5.151 |
| 17 | `Cc1ccc(CNc2cc(N3CCCC3CO)ncn2)s1` (stereo not drawn) | - | -1.505 |
| 18 | `CCS(=O)(=O)c1ccccc1N1CCC(NC(=O)C(C)C)CC1` | - | -16.47 |
| 19 | `O=C(Nc1ccccc1)N1CCN(Cc2noc(C3CC3)n2)CC1` | 5.64 | 0.9847 |
| 20 | `CNC(=O)Cc1noc(-c2cc3c(s2)CCCCCC3)n1` | 18.77 | -10.53 |
| 21 | `COc1cccc(N2CCN(Cc3cc(C)cc(F)c3)CC2=O)c1` | 45.53 | 7.291 |
| 22 | `COc1cc(OC)cc(N2CCC(NCc3cc[nH]n3)C2)c1` (stereo not drawn) | 15.54 | -23.32 |
| 23 | `CCc1ncc2c(n1)CN(Cc1cn3ccsc3n1)CC2` | - | 6.472 |
| 24 | `CC(C)COc1cncc(N2CCCN(CC(F)(F)F)CC2)n1` | - | 1.385 |
| 25 | `COc1ccc(-c2nc(CNC(C)Cn3cccn3)cs2)cc1` (stereo not drawn) | 49.5 | 58.05 |
| 26 | `CCc1cnc(N2CCCC(CCC(N)=O)C2)nc1` (stereo not drawn) | -24.11 | 11.45 |
| 27 | `[H][C@@]12CCN(Cc3cccnc3)[C@@]1([H])CCN2C(=O)Cc1cccs1` | 31.82 | -1.425 |
| 28 | `CN(Cc1cccc(-n2cccn2)c1)C(=O)c1cccc(N(C)C)c1` | -9.359 | -33.14 |
| 29 | `CN1CCN(C(=O)CCc2ccccc2)Cc2cccnc21.O=C(O)C(F)(F)F` | 23.47 | -34.45 |
| 30 | `CCN(CC)S(=O)(=O)CC(=O)N1CCc2ccc(F)cc21` | 2.378 | -19.64 |
| 31 | `Cc1ccccc1CN(Cc1ccncc1)CC(C)C` | 21.77 | -41.46 |
| 32 | `CN1CCC(C(=O)N2CCN(Cc3cccc(Cl)c3)CC2)CC1=O` (stereo not drawn) | 17.82 | -7.052 |
| 33 | `Cc1nn(C)c(C)c1-c1c(-c2ccccc2)ncn1[C@H](CO)C(=O)O` | - | -11.88 |
| 34 | `CC(CCc1ccccc1)CC(=O)NC1CCN(CC(N)=O)CC1` (stereo not drawn) | 3.274 | -8.675 |
| 35 | `Cc1ccc(CNCC2Cn3nnc(-c4cccc(F)c4)c3CO2)o1.O=C(O)C(F)(F)F` (stereo not drawn) | 44.72 | -4.571 |
| 36 | `COCC1CC2(CCN(C(=O)c3ccc(F)cc3C)CC2)CO1` (stereo not drawn) | 1.919 | 2.074 |
| 37 | `COc1cc(CNC(=O)c2c(C)noc2C(C)C)ccn1` | 8.911 | -4.695 |
| 38 | `Cc1cnn(CCNC(C)C(=O)NCCc2cccs2)c1` (stereo not drawn) | -34.11 | -29.21 |
| 39 | `CN(C)c1cccc(C(=O)Nc2cnn(Cc3ccncc3)c2)c1` | 21.99 | -5.589 |
| 40 | `Cc1nc2c(C#N)cnn2c(C)c1CCC(=O)N(C)C(C)C(C)C` (stereo not drawn) | 14.63 | 1.833 |
| 41 | `CCc1cccc(CC)c1NC(=O)c1ccccc1N(C)S(C)(=O)=O` | 12.47 | 7.57 |
| 42 | `O=C(c1ccc(Cn2ccccc2=O)o1)N1CCSCC1` | - | -8.449 |
| 43 | `Cc1nc(C2CCN(C(=O)c3ccn(C)n3)CC2)c2sccn12` | -12.4 | -12.56 |
| 44 | `CC1c2ncc(COc3cccnc3)n2CCN1C(=O)C1=CCCCC1.O=C(O)C(F)(F)F` (stereo not drawn) | -1.806 | -15.61 |
| 45 | `NC(=O)c1cccc(CS(=O)(=O)CC(O)Cn2cccn2)c1` (stereo not drawn) | -18.11 | -7.385 |
| 46 | `CCn1nc(CC(C)C)cc1C(=O)NCCCN1CCOCC1` | 36.49 | 18.9 |
| 47 | `CN(C)c1cc(C(F)(F)F)cc(-c2ccc(C(=O)O)cc2)n1` | 19.62 | 10.8 |
| 48 | `CC(C)=CCCC1(C)CCC(=O)N(CCNc2nc(C)cc(=O)[nH]2)C1` (stereo not drawn) | 29.98 | -36.31 |
| 49 | `Cc1cc(CN2CCC(N(C)Cc3nnc(C4CC4)n3C)C2)on1` (stereo not drawn) | 8.222 | -2.24 |
| 50 | `CC(C)[C@H]1CN(S(=O)(=O)c2cccnc2)C[C@@H]1N` | -5.823 | 12.77 |
| 51 | `CC(C)C[C@H](N)C(=O)N1CC2(CCNCC2)c2cc(Cl)ccc21.Cl.Cl` | 8.215 | -4.799 |
| 52 | `CSCC(=O)N1CCC2(CC1)c1ccccc1CC2O` (stereo not drawn) | -13.39 | 1.332 |
| 53 | `CCC(C)NC(=O)c1sccc1-n1cnnn1` (stereo not drawn) | -43.95 | -1.238 |
| 54 | `O=C(CC1=CCCCC1)NCCc1csc(N2CCCC2)n1` | 20.62 | 6.092 |
| 55 | `COc1ccc2c(c1)C1(CCN(Cc3nccs3)CC1)N(C)CC2.O=C(O)C(F)(F)F.O=C(O)C(F)(F)F` | -9.444 | -15.66 |
| 56 | `Cc1ccsc1CNC(=O)N1CCC(Cc2cnn(C)c2)C1` (stereo not drawn) | - | -7.742 |
| 57 | `c1cnn(CCNCc2cnc(N3CCOCC3)nc2)c1` | -20.29 | -3.065 |
| 58 | `COCCCn1c(CN2CCCCO2)cnc1S(=O)(=O)C1CCCC1` | 21.58 | -15.66 |
| 59 | `COc1ccc(C#N)cc1CSCCN1CCOCC1` | - | -24.23 |
| 60 | `COCC(C)N(C)C(=O)c1ccc2nncn2c1` (stereo not drawn) | -17.71 | -0.1794 |
| 61 | `Cc1nc(-c2c(-c3ccccc3)ncn2[C@H]2C[C@@H](C(=O)O)N(C)C2)co1` | - | -9.288 |
| 62 | `COCCN1CCC(C(=O)c2cc(F)ccc2F)CC1` | - | 2.465 |
| 63 | `O=C(NCCc1ccc(Cl)cc1)c1coc(CN2CCOCC2)c1` | - | -7.966 |
| 64 | `COc1ccnc(N2CCN(C(=O)c3cscn3)CC2)n1` | - | 2.081 |
| 65 | `Cc1c(OCC(=O)NCc2ccccc2Cl)c(=O)ccn1C` | 8.847 | -14.96 |
| 66 | `CCc1sc(-c2nnc(CNC(C)Cn3cccn3)o2)cc1C` (stereo not drawn) | 50.91 | 11.91 |
| 67 | `Cc1ccc(N2CC[C@@H](NC(=O)c3cnccn3)[C@H](O)C2)nn1` | - | 5.133 |
| 68 | `Cc1cccc(CN2CCCC3(CCN(CC(=O)N(C)C)C3=O)C2)n1.O=C(O)C(F)(F)F` (stereo not drawn) | 8.643 | 1.827 |
| 69 | `Cc1ccc(-c2noc(CCC(=O)NC(C)Cn3cccn3)n2)cc1` (stereo not drawn) | - | -18.83 |
| 70 | `COc1cccc2c1OCC(C(=O)NCCn1nc(C)c(Cl)c1C)C2` (stereo not drawn) | 19.8 | -9.64 |
| 71 | `CN(C)Cc1cnc(C2CCN(C(=O)c3cccc(Cl)c3)C2)[nH]1` (stereo not drawn) | -1.213 | -2.242 |
| 72 | `Cc1cc(CN2CCN(C(=O)NCCCc3cn[nH]c3C)CC2)on1` | 8.602 | 7.34 |
| 73 | `CN(C)CCn1c2c(ccc1=O)CCN(Cc1cnn(C)c1)CC2.O=C(O)C(F)(F)F.O=C(O)C(F)(F)F` | -10.86 | 10.2 |
| 74 | `[H][C@]12CC[C@]([H])(CN(C(=O)CCn3cc(Cl)cn3)C1)N(Cc1ccccn1)C2` | -2.864 | 7.885 |
| 75 | `CN1C(=O)CCC12CCN(c1ccc(C#N)cn1)CC2.O=C(O)C(F)(F)F` | -2.585 | 8.745 |
| 76 | `COc1cccc(NC(=O)c2cc3c([nH]c2=O)CCCC3=O)c1` | 23.04 | 16.17 |
| 77 | `O=C(O)C(F)(F)F.O=C(O)C(F)(F)F.O=C(O)c1c(-c2cncnc2)ncc2c1CCN(Cc1ccco1)C2` | -39.34 | 28.38 |
| 78 | `CNc1nc2c(s1)C(c1c(Cl)cccc1Cl)CC(=O)N2` (stereo not drawn) | 107.9 | 20.69 |
| 79 | `Cc1nc(CCCNC(=O)c2c(F)cccc2Br)n[nH]1` | 5.28 | 17.38 |
| 80 | `CC(NC(=O)Nc1nccs1)C(=O)NC1CCCC1` (stereo not drawn) | 13.09 | 1.171 |
| 81 | `[H][C@@]12CCN(Cc3nccs3)C[C@]1([H])[C@H](c1nc(C)no1)CCO2` | -41.7 | -43.03 |

Some entries from above, unchanged:

| structure | Mtb growth Cornell | Mtb heat-shock |
|---|---|---|
| `CC(C)C[C@H](N)C(=O)N1CC2(CCNCC2)c2cc(Cl)ccc21.Cl.Cl` | 8.215 | -4.799 |
| `CC(C)=CCCC1(C)CCC(=O)N(CCNc2nc(C)cc(=O)[nH]2)C1` (stereo not drawn) | 29.98 | -36.31 |
| `COCC(C)N(C)C(=O)c1ccc2nncn2c1` (stereo not drawn) | -17.71 | -0.1794 |
| `CC(CC(=O)NCCS(N)(=O)=O)C1CCCCC1` (stereo not drawn) | 2.816 | 5.151 |
| `COc1ccc2c(c1)C1(CCN(Cc3nccs3)CC1)N(C)CC2.O=C(O)C(F)(F)F.O=C(O)C(F)(F)F` | -9.444 | -15.66 |
| `CC(C)COc1cncc(N2CCCN(CC(F)(F)F)CC2)n1` | - | 1.385 |